Results: patent US9988428B2 (GRIFFON PHARMACEUTICALS INC., priority 2016, dated 2018)

Assay: general procedure: Fmoc solid-phase peptide synthesis; Benzhydrylamine (BHA) resin (Bachem AG), loading 0.75 mmol/g, with 6-aminohexanoic acid and Rink linker; HCTU or COMU, DIEA
Details: conjugation step, analytical HPLC

Row | Substance | final HPLC purity [%]
1 | YaDAIFTAC(Peg-2K)YROVLAQLSAROALC(Peg-2K)DILSRN-NH2 | >95
2 | YaDAIFTAC(Peg-2K)YROVLAQLSAROALQDILC(Peg-2K)RN-NH2 | >95
3 | YaDAIFTAC(Peg-2K)YROVLAQLSAROALQDILS-(Har)-NH2 | >95
4 | YaDAIFTAC(Peg-2K)YROVLAQLSAROALQDILSKN-NH2 | >95
5 | YaDAIFTAC(Peg-2K)YROVLAQLSAROALQDILSRNC(Peg-2K)-NH2 | >95
6 | YaDAIFTAC(Peg-2K)YROVLAQLSAROC(Peg-2K)LQDILSRN-NH2 | >95
7 | YaDAIFTAC(Peg-5K)YROVLAQLSAROALQDILS(Har)-NH2 | >95
8 | YaDAIFTAC(Peg-40K)YROVLAQLSAROALQDILS(Har)-NH2 | >95
9 | YaDAIFTASYROVLAC(Peg-2K)LSAROALQDILSKN-NH2 | >95
10 | YaDAIFTASYROVLAQLSAROALC(Peg-2K)DILSKN-NH2 | >95
11 | YaDAIFTASYROVLAQLSAROALQDC(Peg-2K)LSKN-NH2 | >95
12 | YaDAIFTASYROVLAQLSAROALQDILC(Peg-2K)KN-NH2 | >95
13 | YaDAIFTASYROVLAQLSAROC(Peg-2K)LQDILSKN-NH2 | >95
14 | YaDAIFTASYROVLAQLSC(Peg-2K)ROALQDILSKN-NH2 | >95
15 | YaDAIFTASYROVLC(Peg-2K)QLSAROALQDILSKN-NH2 | >95
16 | YaDAIFTC(Peg-2K)SYROVLAQLSAROALQDILSKN-NH2 | >95

The same purity stands for every peptide and may come from a single statement.
